Measurements taken from PMC13466294 (International Journal of Molecular Sciences, 2026).

Key:
HeLa cells = type: cell-based; settings: 3 µM, overnight, 37 °C, DMEM with 10% FBS, single-section imaging with DAPI
peptide made by a vendor = settings: whole synthesis, RP-HPLC

Row | Substance | Subcellular localization of AG signal (HeLa cells) | final HPLC purity (peptide made by a vendor) [%]
1 | MKDHLIHNHHKEEHAHAHNKDYDIPTTHHAHHSTENLYFQGSSGSSGMSVIKPEMKIKLCMRGTVNGHNFVIEGEGKGNPYEGTQILDLNVTEGAPLPFAYDILTTVFQYGNRAFTKYPADIQDYFKQTFPEGYHWERSMTYEDQGICTATSNISMRGDCFFYDIRFDGTNFPPNGPVMQKKTLKWEPSTEKMYVRDGVLKGDVNMALLLEGGGHYRCDFKTTYKAKKDVRLPDAHKVDHRIEILKHDKDYNKVKLYENAVARYSMLPSQAKGLQQGGTGGGGSKVLSRVVQLCREKLTRRRRSNRR [AG–Nuc1510, monomeric Azami Green genetically fused at its C-terminus via a linker to Nuc1510] | absent from the nuclear region | 
2 | MKDHLIHNHHKEEHAHAHNKDYDIPTTHHAHHSTENLYFQGSSGSSGMSVIKPEMKIKLCMRGTVNGHNFVIEGEGKGNPYEGTQILDLNVTEGAPLPFAYDILTTVFQYGNRAFTKYPADIQDYFKQTFPEGYHWERSMTYEDQGICTATSNISMRGDCFFYDIRFDGTNFPPNGPVMQKKTLKWEPSTEKMYVRDGVLKGDVNMALLLEGGGHYRCDFKTTYKAKKDVRLPDAHKVDHRIEILKHDKDYNKVKLYENAVARYSMLPSQAKGLQQGGTGGGGSTLKERCLQVVRSLVKKKRTLRKNDRKKR [AG–Nuc1511, monomeric Azami Green genetically fused at its C-terminus via a linker to Nuc1511] | absent from the nuclear region | 
3 | MKDHLIHNHHKEEHAHAHNKDYDIPTTHHAHHSTENLYFQGSSGSSGMSVIKPEMKIKLCMRGTVNGHNFVIEGEGKGNPYEGTQILDLNVTEGAPLPFAYDILTTVFQYGNRAFTKYPADIQDYFKQTFPEGYHWERSMTYEDQGICTATSNISMRGDCFFYDIRFDGTNFPPNGPVMQKKTLKWEPSTEKMYVRDGVLKGDVNMALLLEGGGHYRCDFKTTYKAKKDVRLPDAHKVDHRIEILKHDKDYNKVKLYENAVARYSMLPSQAKGLQQGGTGGGGSYGRKKRRQRRR [AG–TAT, Azami Green fused to TAT peptide, positive control, reference compound] | nucleolar-targeting ability | 
4 | TAMRA-labeled Nuc1510 |  | >90
